These are yes or no findings as the source states them, for the method shown. Binding seen in cells or lysates may run through a third protein. These calls come from enrichment with a bait or labelling near it, and not all partners need be listed.

Sequences of proteins named here, by UniProt entry; tags and fusion partners are left off. Residues count along the entry.
UniProt A6H603: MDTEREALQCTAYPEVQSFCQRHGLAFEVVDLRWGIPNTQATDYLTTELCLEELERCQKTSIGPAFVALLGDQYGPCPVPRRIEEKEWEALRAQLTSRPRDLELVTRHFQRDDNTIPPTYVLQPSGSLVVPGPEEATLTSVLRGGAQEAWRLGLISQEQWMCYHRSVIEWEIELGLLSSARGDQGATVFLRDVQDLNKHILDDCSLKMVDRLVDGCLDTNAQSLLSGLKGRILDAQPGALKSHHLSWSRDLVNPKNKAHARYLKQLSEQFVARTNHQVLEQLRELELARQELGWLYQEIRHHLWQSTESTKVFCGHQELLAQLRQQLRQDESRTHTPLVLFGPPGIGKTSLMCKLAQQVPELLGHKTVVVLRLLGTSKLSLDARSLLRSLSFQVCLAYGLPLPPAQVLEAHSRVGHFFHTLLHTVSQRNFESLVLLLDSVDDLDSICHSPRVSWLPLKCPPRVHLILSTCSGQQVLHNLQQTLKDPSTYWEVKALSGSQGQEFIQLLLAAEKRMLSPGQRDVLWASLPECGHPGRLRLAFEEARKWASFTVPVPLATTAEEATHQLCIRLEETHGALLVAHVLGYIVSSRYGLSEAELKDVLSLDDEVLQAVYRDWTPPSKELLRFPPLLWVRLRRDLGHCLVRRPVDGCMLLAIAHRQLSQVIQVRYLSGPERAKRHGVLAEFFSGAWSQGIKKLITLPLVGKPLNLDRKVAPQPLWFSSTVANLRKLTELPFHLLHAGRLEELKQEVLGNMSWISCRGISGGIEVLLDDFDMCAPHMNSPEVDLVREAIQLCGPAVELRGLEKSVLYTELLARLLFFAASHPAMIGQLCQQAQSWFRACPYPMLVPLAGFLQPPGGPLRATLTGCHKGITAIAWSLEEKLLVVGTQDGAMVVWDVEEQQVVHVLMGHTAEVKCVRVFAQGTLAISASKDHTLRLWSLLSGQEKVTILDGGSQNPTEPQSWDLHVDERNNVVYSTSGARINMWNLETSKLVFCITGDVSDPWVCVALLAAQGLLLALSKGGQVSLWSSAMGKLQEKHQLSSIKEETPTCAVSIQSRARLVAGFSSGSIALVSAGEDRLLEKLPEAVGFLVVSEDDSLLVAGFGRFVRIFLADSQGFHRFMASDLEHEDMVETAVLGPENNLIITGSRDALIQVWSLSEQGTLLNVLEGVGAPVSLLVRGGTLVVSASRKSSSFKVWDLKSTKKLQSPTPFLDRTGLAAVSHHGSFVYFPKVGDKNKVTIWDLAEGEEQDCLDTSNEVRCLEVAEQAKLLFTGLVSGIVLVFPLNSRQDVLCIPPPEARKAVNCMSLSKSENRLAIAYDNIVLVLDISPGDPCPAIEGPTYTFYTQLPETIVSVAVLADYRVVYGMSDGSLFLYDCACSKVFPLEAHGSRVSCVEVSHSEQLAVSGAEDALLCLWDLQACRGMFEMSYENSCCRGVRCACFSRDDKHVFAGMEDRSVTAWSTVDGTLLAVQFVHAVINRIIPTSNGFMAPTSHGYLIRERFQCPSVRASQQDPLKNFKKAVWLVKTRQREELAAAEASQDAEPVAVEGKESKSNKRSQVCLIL
UniProt P0DMV8: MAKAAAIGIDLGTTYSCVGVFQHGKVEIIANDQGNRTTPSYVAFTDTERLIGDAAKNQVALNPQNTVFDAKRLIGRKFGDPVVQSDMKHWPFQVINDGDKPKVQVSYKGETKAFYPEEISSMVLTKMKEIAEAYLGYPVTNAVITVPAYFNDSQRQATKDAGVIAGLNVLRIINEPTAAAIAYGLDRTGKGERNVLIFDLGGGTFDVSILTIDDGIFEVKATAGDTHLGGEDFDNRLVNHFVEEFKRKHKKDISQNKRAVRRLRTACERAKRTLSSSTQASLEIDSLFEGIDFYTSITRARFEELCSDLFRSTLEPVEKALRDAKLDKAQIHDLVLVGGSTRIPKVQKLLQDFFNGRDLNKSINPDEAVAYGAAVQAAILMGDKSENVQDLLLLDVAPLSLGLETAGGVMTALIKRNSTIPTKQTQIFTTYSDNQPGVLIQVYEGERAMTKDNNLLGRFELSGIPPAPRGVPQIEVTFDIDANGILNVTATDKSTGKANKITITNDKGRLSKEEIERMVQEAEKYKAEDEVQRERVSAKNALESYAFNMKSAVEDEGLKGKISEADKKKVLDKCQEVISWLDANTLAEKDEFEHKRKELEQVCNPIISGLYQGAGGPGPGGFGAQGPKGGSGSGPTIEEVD
UniProt P27824, residues 21-592: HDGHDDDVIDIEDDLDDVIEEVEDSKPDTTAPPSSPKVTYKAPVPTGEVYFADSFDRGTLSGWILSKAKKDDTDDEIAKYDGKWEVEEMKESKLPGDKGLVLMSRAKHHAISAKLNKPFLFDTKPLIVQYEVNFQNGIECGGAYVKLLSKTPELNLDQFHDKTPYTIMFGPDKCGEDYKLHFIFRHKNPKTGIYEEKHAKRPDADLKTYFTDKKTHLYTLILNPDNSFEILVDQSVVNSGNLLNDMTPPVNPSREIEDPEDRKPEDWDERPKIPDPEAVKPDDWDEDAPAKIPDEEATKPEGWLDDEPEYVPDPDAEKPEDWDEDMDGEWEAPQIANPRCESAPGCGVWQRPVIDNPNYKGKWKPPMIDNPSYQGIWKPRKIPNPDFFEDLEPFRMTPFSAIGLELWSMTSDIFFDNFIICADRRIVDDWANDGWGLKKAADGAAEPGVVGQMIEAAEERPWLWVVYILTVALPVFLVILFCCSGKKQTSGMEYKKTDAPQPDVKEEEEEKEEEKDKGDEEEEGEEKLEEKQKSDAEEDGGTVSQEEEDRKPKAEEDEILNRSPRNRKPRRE
UniProt P51149: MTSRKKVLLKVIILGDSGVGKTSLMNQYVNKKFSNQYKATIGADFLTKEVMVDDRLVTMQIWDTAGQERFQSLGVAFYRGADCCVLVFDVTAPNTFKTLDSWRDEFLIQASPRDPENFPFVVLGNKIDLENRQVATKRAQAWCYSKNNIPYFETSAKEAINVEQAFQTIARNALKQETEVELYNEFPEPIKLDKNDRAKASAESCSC
UniProt P21796: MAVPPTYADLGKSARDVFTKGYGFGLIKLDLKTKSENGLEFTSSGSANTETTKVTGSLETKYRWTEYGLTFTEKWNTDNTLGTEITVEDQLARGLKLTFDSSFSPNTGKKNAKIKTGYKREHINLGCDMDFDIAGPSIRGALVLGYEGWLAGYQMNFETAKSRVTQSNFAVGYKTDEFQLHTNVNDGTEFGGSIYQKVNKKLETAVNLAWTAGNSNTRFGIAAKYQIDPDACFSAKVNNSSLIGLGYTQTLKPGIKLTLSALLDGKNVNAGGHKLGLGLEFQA

The assay deals with Halo-Nwd1 (NACHT and WD repeat domain-containing protein 1, halo-tagged) (mouse) (UniProt A6H603). As to the kind of experiment: affinity purification with mass spectrometry.

For the molecule “heat shock 70 kDa protein 1A (from UniProt P0DMV8 1-641)”, the binding result is given as “binds”.
As for calnexin (from UniProt P27824 21-592), the entry is “binds”; as for RAB7A (from UniProt P51149 1-207), “binds”.
Take “voltage-dependent anion-selective channel protein 1 (VDAC1) (from UniProt P21796 1-283)”: the binding result was “binds”.
On to “sarco/endoplasmic reticulum calcium ATPase (SERCA2), endogenous in HEK293T (from UniProt P16615-1 1-1042)”, for which the binding entry is listed as “binds”.

B1: sideroflexin-1 (protein, UniProt Q9H9B4 1-322)
chain: MSGELPPNINIKEPRWDQSTFIGRANHFFTVTDPRNILLTNEQLESARKIVHDYRQGIVPPGLTENELWRAKYIYDSAFHPDTGEKMILIGRMSAQVPMNMTITGCMMTFYRTTPAVLFWQWINQSFNAVVNYTNRSGDAPLTVNELGTAYVSATTGAVATALGLNALTKHVSPLIGRFVPFAAVAAANCINIPLMRQRELKVGIPVTDENGNRLGESANAAKQAITQVVVSRILMAAPGMAIPPFIMNTLEKKAFLKRFPWMSAPIQVGLVGFCLVFATPLCCALFPQKSSMSVTSLEAELQAKIQESHPELRRVYFNKGL
Consider B1, for which the binding result is listed as “binds”.

For the origin of these results see paper doi:10.1101/2024.01.26.577307.
